Data published in patent publication US20230272413A1 (UNITED STATES OF AMERICA AS REPRESENTED BY THE SECRETARY OF …, published 2023).
Results are given in words; binding and its absence hold for the method and conditions named. Some results given as binding are weak or reduced against the parent protein; the word gives no strength.

Assays:
[1] = molecular target: TuYV ^NRTD (Turnip yellows virus) (UniProt P09514); assay: SEC-MALS, homodimer
[2] = molecular target: TuYV ^NRTD (Turnip yellows virus) (UniProt P09514); assay: X-ray crystal structure, homodimer

B1: TuYV ^NRTD (protein)
chain: KKYRFIVYTGVPVTRIMAQSTDDAISLYDMPSQRFRYIEDENMNWTNLDSRWYSQNSLKAIPMIIVPVPQGEWTVEISMEGYQPTSSTTDPNKDKQDGLIAYNDDLSEGWNVGIYNNVEITNNKADNTLKYGHPDMELNGCHFNQGQCLERDGDLTCHIKTTGDNASFFVVGPAVQKQSKYNYAVSYGAWTDRMMEIGMIAIALDEQGSSGSVKTERPKRVGHSMAVSTWETIKLP
In the case of B1, the binding [1] is reported as “binds” and the binding [2] is reported as “binds”.
